Structures are written as SMILES. Where a name gives a salt, the structure may show the parent alone. Some of the results follow. The calls rarely recur for the same compound in another form.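 In K562 cells expressing nanoluciferase-fused kinases, luminescence was recorded at 4 h intervals between 2 and 18 h, normalized as percent of control with DMSO at 100% and a positive control at 0%. A significant (2 sigma) signal drop marks a time point as decreased. The authors' rule for a hit is not shown and takes in more than the number of time points.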

The first test addresses EGFR (UniProt P00533). In words: kinase-Nluc reporter destabilization hit call (1 = scored as downregulated) (binary); higher = compound decreases kinase abundance. As to conditions: K562; 2-18 h.
In the case of `CC1=C[C@]23C(=O)[C@@H](C=C(CO)[C@@H](O)[C@]2(O)[C@H]1O)[C@H]1[C@@H](C[C@H]3C)C1(C)C` [Ingenol] (10 µM), the “kinase-Nluc reporter destabilization hit call” value is inactive: 0.

In the case of `C=C[C@H]1CN2CC[C@]3(C(=O)Nc4ccccc43)[C@@H]2C[C@@H]1/C(=C\OC)C(=O)OC` [Corynoxeine] (2 µM), the “kinase-Nluc reporter destabilization hit call” value was inactive: 0.

Take `O=C(O)c1sc2cc(Cl)ccc2c1Cl` (10 µM): the “kinase-Nluc reporter destabilization hit call” value was inactive: 0.

On to `C[C@H]1CC[C@]2(NC1)O[C@H]1C[C@H]3[C@@H]4CC[C@H]5C[C@@H](O)CC[C@]5(C)[C@H]4CC[C@]3(C)[C@H]1[C@@H]2C` [Tomatidine (hydrochloride)] (10 µM), for which the “kinase-Nluc reporter destabilization hit call” value was inactive: 0.

For the compound `O=C1C=CC[C@@H]2[C@H]3CCCN4CCC[C@@H](CN12)[C@@H]34` [Sophocarpine (monohydrate)] (2.5 µM), the “kinase-Nluc reporter destabilization hit call” value was inactive: 0.

Turning to `Cc1n[nH]cc1-c1cc2nc([C@@H]3CC4CCN3CC4)[nH]c(=O)c2s1` [Simurosertib] (2.5 µM), the “kinase-Nluc reporter destabilization hit call” value was inactive: 0.

Regarding `O=C(N[C@@H](COc1ccc2[nH]c(=O)[nH]c2c1)c1ccccc1)c1cccn(Cc2ccc(F)c(F)c2)c1=O` (2.5 µM), the “kinase-Nluc reporter destabilization hit call” value was inactive: 0.

With `O=C(/C=C/c1ccccc1)OC[C@H]1O[C@@H](O[C@@H]2OC=C[C@H]3[C@H](O)[C@@H]4O[C@]4(CO)[C@@H]23)[C@H](O)[C@@H](O)[C@@H]1O` [Picroside I] (10 µM), the “kinase-Nluc reporter destabilization hit call” value is inactive: 0.

Take `C[C@@H]1CC[C@H]2[C@@H](C)C(=O)O[C@@H]3O[C@@]4(C)CC[C@@H]1[C@]32OO4` [Artemisinin] (10 µM): the “kinase-Nluc reporter destabilization hit call” value was inactive: 0.

On to `N#CC(C#N)=Cc1ccc([N+](=O)[O-])c(O)c1` (10 µM), for which the “kinase-Nluc reporter destabilization hit call” value was inactive: 0.

For the compound `C[C@H](CCC(=O)O)C[C@H](C)C[C@H](C)C(=O)/C=C(\O)[C@H](C)C[C@H](C)C/C=C/[C@@H](C)[C@@H](O)[C@@H](C)[C@@H](O)C[C@@H]1CC[C@@](C)([C@H]2CC[C@@](C)([C@@H](C)O)O2)O1` [Ionomycin (calcium)] (2.5 µM), the “kinase-Nluc reporter destabilization hit call” value was inactive: 0.

For the compound `CC1C(=O)OC2C(O)C34C5OC(=O)C3(OC3OC(=O)C(O)C34C(C(C)(C)C)C5O)C12O` (centres undefined) [Ginkgolide C] (10 µM), the “kinase-Nluc reporter destabilization hit call” value is inactive: 0.

For the compound `Cn1cc(C2=C(c3cn(C4CCN(Cc5ccccn5)CC4)c4ccccc34)C(=O)NC2=O)c2ccccc21` [Enzastaurin] (10 µM), the “kinase-Nluc reporter destabilization hit call” value is inactive: 0.

`O=c1[nH]c2ccccc2n1C1CCN(Cc2ccc(-c3[nH]c4cc5ncnc5cc4nc3-c3ccccc3)cc2)CC1` [AKT inhibitor VIII] (2.5 µM): the “kinase-Nluc reporter destabilization hit call” value was inactive: 0.

With `CCN1CCN(C(=O)Cc2ccc(Nc3ncc(F)c(Nc4ccc(C(=O)Nc5ccccc5Cl)cc4)n3)cc2)CC1` (2.5 µM), the “kinase-Nluc reporter destabilization hit call” value was inactive: 0.

In the case of `C=CC(=O)N[C@H]1C=C(C)c2c(-c3cnc4ccccc4c3)c3c(N)ncnc3n2C1` (10 µM), the “kinase-Nluc reporter destabilization hit call” value is inactive: 0.

For the compound `CC(C)(C)c1cc(C=C(C#N)C#N)cc(Br)c1O` (2.5 µM), the “kinase-Nluc reporter destabilization hit call” value was inactive: 0.

As to `CCCCNc1nc(N)c2[nH]c(=O)n(Cc3ccc(C)nc3)c2n1` (10 µM), the “kinase-Nluc reporter destabilization hit call” value was inactive: 0.

`C=CC(=O)Nc1ccc2[nH]c(=O)n(C3CCN(Cc4ccc(-c5nc6cc[nH]c(=O)c6cc5-c5ccccc5)cc4)CC3)c2c1` [Borussertib] (10 µM): the “kinase-Nluc reporter destabilization hit call” value was inactive: 0.

With `COc1ccc(N(C(=O)Oc2c(C)cccc2C)c2ccnc(Nc3ccc(N4CCN(C)CC4)cc3)n2)c(OC)c1` (2.5 µM), the “kinase-Nluc reporter destabilization hit call” value is inactive: 0.

Take `COc1ccc2c(c1)[nH]c1c(C)nccc12` [Harmine] (10 µM): the “kinase-Nluc reporter destabilization hit call” value is inactive: 0.

Take `O=c1cc(O)c2ccccc2o1` [4-Hydroxycoumarin] (10 µM): the “kinase-Nluc reporter destabilization hit call” value is inactive: 0.

Turning to `CC(=O)c1c(O)c(C)c(O)c(Cc2c(O)c3c(c(C(=O)/C=C/c4ccccc4)c2O)OC(C)(C)C=C3)c1O` [Rottlerin] (2 µM), the “kinase-Nluc reporter destabilization hit call” value was inactive: 0.

`C/C(O)=C(\C#N)C(=O)Nc1cc(Br)ccc1Br` (10 µM): the “kinase-Nluc reporter destabilization hit call” value was inactive: 0.

For `Cc1ccccc1-n1c(Cn2ncc3c(N)ncnc32)nc2cccc(C)c2c1=O` (10 µM), the “kinase-Nluc reporter destabilization hit call” value is inactive: 0.

As to `COc1ccc2c(c1)/C(=C/c1cnc[nH]1)C(=O)N2` (2.5 µM), the “kinase-Nluc reporter destabilization hit call” value was inactive: 0.

As to `O=[N+]([O-])/C=C/c1ccc2c(c1)OCO2` (2.5 µM), the “kinase-Nluc reporter destabilization hit call” value is inactive: 0.

The next test addresses EGFR_G719S (UniProt P00533). Described as above. Conditions: K562; 2-18 h.
As for `CC1=C[C@]23C(=O)[C@@H](C=C(CO)[C@@H](O)[C@]2(O)[C@H]1O)[C@H]1[C@@H](C[C@H]3C)C1(C)C` [Ingenol] (10 µM), the “kinase-Nluc reporter destabilization hit call” value is inactive: 0.

Take `C=C[C@H]1CN2CC[C@]3(C(=O)Nc4ccccc43)[C@@H]2C[C@@H]1/C(=C\OC)C(=O)OC` [Corynoxeine] (2 µM): the “kinase-Nluc reporter destabilization hit call” value is inactive: 0.

On to `O=C(O)c1sc2cc(Cl)ccc2c1Cl` (10 µM), for which the “kinase-Nluc reporter destabilization hit call” value was inactive: 0.

Take `C[C@H]1CC[C@]2(NC1)O[C@H]1C[C@H]3[C@@H]4CC[C@H]5C[C@@H](O)CC[C@]5(C)[C@H]4CC[C@]3(C)[C@H]1[C@@H]2C` [Tomatidine (hydrochloride)] (10 µM): the “kinase-Nluc reporter destabilization hit call” value was inactive: 0.

As to `O=C1C=CC[C@@H]2[C@H]3CCCN4CCC[C@@H](CN12)[C@@H]34` [Sophocarpine (monohydrate)] (2.5 µM), the “kinase-Nluc reporter destabilization hit call” value was inactive: 0.

For `Cc1n[nH]cc1-c1cc2nc([C@@H]3CC4CCN3CC4)[nH]c(=O)c2s1` [Simurosertib] (2.5 µM), the “kinase-Nluc reporter destabilization hit call” value is inactive: 0.

Turning to `O=C(N[C@@H](COc1ccc2[nH]c(=O)[nH]c2c1)c1ccccc1)c1cccn(Cc2ccc(F)c(F)c2)c1=O` (2.5 µM), the “kinase-Nluc reporter destabilization hit call” value was inactive: 0.

With `O=C(/C=C/c1ccccc1)OC[C@H]1O[C@@H](O[C@@H]2OC=C[C@H]3[C@H](O)[C@@H]4O[C@]4(CO)[C@@H]23)[C@H](O)[C@@H](O)[C@@H]1O` [Picroside I] (10 µM), the “kinase-Nluc reporter destabilization hit call” value is inactive: 0.

`C[C@@H]1CC[C@H]2[C@@H](C)C(=O)O[C@@H]3O[C@@]4(C)CC[C@@H]1[C@]32OO4` [Artemisinin] (10 µM): the “kinase-Nluc reporter destabilization hit call” value is inactive: 0.

In the case of `N#CC(C#N)=Cc1ccc([N+](=O)[O-])c(O)c1` (10 µM), the “kinase-Nluc reporter destabilization hit call” value is inactive: 0.

On to `C[C@H](CCC(=O)O)C[C@H](C)C[C@H](C)C(=O)/C=C(\O)[C@H](C)C[C@H](C)C/C=C/[C@@H](C)[C@@H](O)[C@@H](C)[C@@H](O)C[C@@H]1CC[C@@](C)([C@H]2CC[C@@](C)([C@@H](C)O)O2)O1` [Ionomycin (calcium)] (2.5 µM), for which the “kinase-Nluc reporter destabilization hit call” value was inactive: 0.

As for `CC1C(=O)OC2C(O)C34C5OC(=O)C3(OC3OC(=O)C(O)C34C(C(C)(C)C)C5O)C12O` (centres undefined) [Ginkgolide C] (10 µM), the “kinase-Nluc reporter destabilization hit call” value is inactive: 0.

As for `Cn1cc(C2=C(c3cn(C4CCN(Cc5ccccn5)CC4)c4ccccc34)C(=O)NC2=O)c2ccccc21` [Enzastaurin] (10 µM), the “kinase-Nluc reporter destabilization hit call” value was inactive: 0.

Regarding `O=c1[nH]c2ccccc2n1C1CCN(Cc2ccc(-c3[nH]c4cc5ncnc5cc4nc3-c3ccccc3)cc2)CC1` [AKT inhibitor VIII] (2.5 µM), the “kinase-Nluc reporter destabilization hit call” value is inactive: 0.

As to `CCN1CCN(C(=O)Cc2ccc(Nc3ncc(F)c(Nc4ccc(C(=O)Nc5ccccc5Cl)cc4)n3)cc2)CC1` (2.5 µM), the “kinase-Nluc reporter destabilization hit call” value was inactive: 0.

As for `C=CC(=O)N[C@H]1C=C(C)c2c(-c3cnc4ccccc4c3)c3c(N)ncnc3n2C1` (10 µM), the “kinase-Nluc reporter destabilization hit call” value was inactive: 0.

For `CC(C)(C)c1cc(C=C(C#N)C#N)cc(Br)c1O` (2.5 µM), the “kinase-Nluc reporter destabilization hit call” value was inactive: 0.

Turning to `CCCCNc1nc(N)c2[nH]c(=O)n(Cc3ccc(C)nc3)c2n1` (10 µM), the “kinase-Nluc reporter destabilization hit call” value was inactive: 0.

On to `C=CC(=O)Nc1ccc2[nH]c(=O)n(C3CCN(Cc4ccc(-c5nc6cc[nH]c(=O)c6cc5-c5ccccc5)cc4)CC3)c2c1` [Borussertib] (10 µM), for which the “kinase-Nluc reporter destabilization hit call” value is inactive: 0.

As to `COc1ccc(N(C(=O)Oc2c(C)cccc2C)c2ccnc(Nc3ccc(N4CCN(C)CC4)cc3)n2)c(OC)c1` (2.5 µM), the “kinase-Nluc reporter destabilization hit call” value was inactive: 0.

Turning to `COc1ccc2c(c1)[nH]c1c(C)nccc12` [Harmine] (10 µM), the “kinase-Nluc reporter destabilization hit call” value was inactive: 0.

As to `O=c1cc(O)c2ccccc2o1` [4-Hydroxycoumarin] (10 µM), the “kinase-Nluc reporter destabilization hit call” value is inactive: 0.

As for `CC(=O)c1c(O)c(C)c(O)c(Cc2c(O)c3c(c(C(=O)/C=C/c4ccccc4)c2O)OC(C)(C)C=C3)c1O` [Rottlerin] (2 µM), the “kinase-Nluc reporter destabilization hit call” value is inactive: 0.

Consider `C/C(O)=C(\C#N)C(=O)Nc1cc(Br)ccc1Br` (10 µM), for which the “kinase-Nluc reporter destabilization hit call” value was inactive: 0.

On to `Cc1ccccc1-n1c(Cn2ncc3c(N)ncnc32)nc2cccc(C)c2c1=O` (10 µM), for which the “kinase-Nluc reporter destabilization hit call” value was inactive: 0.

Regarding `COc1ccc2c(c1)/C(=C/c1cnc[nH]1)C(=O)N2` (2.5 µM), the “kinase-Nluc reporter destabilization hit call” value is inactive: 0.

`O=[N+]([O-])/C=C/c1ccc2c(c1)OCO2` (2.5 µM): the “kinase-Nluc reporter destabilization hit call” value was inactive: 0.

The values are drawn from the supplement of paper PMC12823440, “Inhibitors supercharge kinase turnover through native proteolytic circuits” (Nature, 2025).
